# Assay results published in PubChem BioAssay AID1508600 (Functional Genomics Laboratory (NCATS/FGL), 2020).
# Out of some 53,000 sequences screened, about 3,700 (7%) were called active.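 Rule for the calls: active = gene knockdowns whose robust z-score for IL-1 alpha signal is at least 2 or at most -2, so actives lie on both sides; inactive = the rest.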 This is one part of the list.
# Experiment: Components of the Cytosolic LPS Sensing Pathway: Gene Identification via Genome-wide siRNA Screen;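 note: robust z of the log signal after scaling to non-targeting control siRNA wells of the plate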
# Conditions: RAW264.7 macrophages, IL-1a HTRF, actives lie on both sides, screened at 100 nM (by protocol), cells primed 5 h with Pam3CSK4 first
# Method in brief: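 Using IL-1a HTRF as read-out, the screen measured release from RAW264.7 cells after 48h siRNA knockdown (100 nM), 5 h Pam3CSK4 priming and 24 h cytosolic LipidA. Values were expressed relative to negative-control wells as robust z-scores.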
row,Sequence,z-score
1,GGUUCAGCUUUUCAUCAGUTT against Cops3,inactive: 1.37
2,GCAGUGUAUAGGUGUACAATT against Krt2,active: 3
3,GGUGCUACAAUUCUGUGCGTT against Plaat5,inactive: -0.127
4,CGCUCUUUCAGCACAAGAATT against Zfp422,inactive: -1.57
5,GAACGUGAGGCACAAAUGGTT against Rhog,inactive: 0.565
6,GCUAGGAGCUAGGAAUCCGTT against Pdzd3,inactive: -0.682
7,CGGAAAUCGUUGCUAAUCUTT against Fcgrt,inactive: 0.0477
8,GGAAGAAAUAUACAAAGACTT against Paf1,inactive: 0.517
9,GGCUGUUAUACACUAUCUGTT against Tirap,active: -2.71
10,GCAUUACUUUAAGCCAUAUTT against Rbl1,active: 3.57
11,GGAUUUCAUUAUCCUGUUUTT against Zfp608,inactive: -1.19
12,CCGAGUCAUUCAGAGAACGTT against Plekha5,inactive: 0.978
13,GCCAGGUACAUUCUUUGUGTT against Cd27,inactive: -0.768
14,CCAUGUGGCUGAGAGAUUGTT against Vgll2,inactive: 1.12
15,GCCAUGCCUUAAUCUUGGUTT against Cd300lf,inactive: 0.0466
16,GGCAGACGAAUGGUGCAAATT against Dok5,inactive: 0.958
17,CCAAAUAAUUACUAGGCCUTT against Prdx2,inactive: -0.271
18,GGGAGUUUUUAUAUGGUUUTT against Ybey,inactive: 1.27
19,GGAUCAGUACCCGUAUUUGTT against Plin2,active: -2.38
20,GGGUGAAAUCUAUCUCCAUTT against Agfg1,inactive: -1.85
21,GGGAUAUGCAGAGAAUAGATT against Tmco5,inactive: 1.3
22,GGAAGAUUCUUACCUCUGATT against Rngtt,inactive: -1.12
23,GGUCUUACUCUUCAUAAUATT against Olfr1301,inactive: -1.39

# Some values from the results shown:
# Under z-score, GAACGUGAGGCACAAAUGGTT against Rhog is listed with inactive: 0.565
# Under z-score, GGCUGUUAUACACUAUCUGTT against Tirap is listed with active: -2.71

# Continuation:

row,Sequence,z-score
1,GGGACAAAGUAAUAAAGUGTT against Lce1a2,inactive: -0.335
2,GGUACAGGUUGAUGCACUUTT against Ccdc120,inactive: 0.399
3,GGUCUUCCUAUCUAGAACCTT against Dym,inactive: -0.241
4,GGAUCAUUCCUUUGGUUAGTT against Fabp5,inactive: -1.34
5,GGUUGACUAUACUGAAAAGTT against Prrc2a,inactive: -0.606
6,GGAGCUACUGUACCUUGCUTT against Ncapg2,inactive: -1.29
7,GGACAAGUGCCUCUCACCATT against Glis2,active: -3.25
8,GCAGUGGUAAUUCGACAACTT against Rpl23,inactive: 1.18
9,GGGCAUUUGUGAAGUAUAUTT against Zfp14,inactive: -0.646
10,GGGACUCAUGGGAUUGAAATT against Rtp2,inactive: 1.07
11,GGAUCCUCUUUUGUGGGACTT against Chst4,inactive: -1.89
12,GGCACUGAAGGAGAACCUGTT against Rbbp8nl,inactive: -0.336
13,GCUUCUACCUACGCAAUAATT against Nox4,inactive: -1.31
14,GGUUAUUCCUAGCUUUAGCTT against Vmn1r190-ps,inactive: 1.02
15,GCCAGUGGUAUGAGCUUGUTT against Ctdnep1,inactive: 0.177
16,GGGAUUCACUUCACUUAAGTT against Olfr294,inactive: 0.281
17,GCAGUUGACCACAGAAAAUTT against BC061237,inactive: -1.35
18,CCCUAAGAGAGCCUAAAACTT against Serpina3c,inactive: -1.12
19,GGAACUGACUCUAAACAAATT against Slc22a6,inactive: 0.545
20,CGAGAGUCUAACCAAGUACTT against Arhgdib,inactive: -1.89
21,CCUAAUAACUGGACUUUAGTT against Spats2,inactive: -1.53
22,CGAACACUAAGCUUUGAUATT against Rab11fip2,inactive: -0.493
23,GGCAGAAGCAAUGAACUAUTT against Npm1,inactive: 0.172

# Part of the list above, reformatted:
row | Sequence | z-score
14 | GGUUAUUCCUAGCUUUAGCTT against Vmn1r190-ps | inactive: 1.02
15 | GCCAGUGGUAUGAGCUUGUTT against Ctdnep1 | inactive: 0.177

# The results go on.

row,Sequence,z-score
1,GAAAGCGAUGGAGAUCUUATT against Pf4,inactive: 1.03
2,GGACCUACGUCUUGUCUCCTT against Greb1,inactive: 1.14
3,GCGGCAACAUUCAAAGUGGTT against Itgb2l,inactive: -1.94
4,GGAGGUCAGACCAGUUUACTT against Htr3b,active: 2.15
5,CCAGCUCAAGCUUUCCACATT against Olfr1105,inactive: 1.41
6,GGGAAGGAAACCUAGUAAATT against Peg12,inactive: 0.461
7,GGAAGCUGAUGAGAAUUACTT against Stx4a,inactive: 1.22
8,GGAAUCCUGAUGGUGAUGATT against Mttp,inactive: -1.25
9,GGACGAGCUGUAUUUGAAUTT against Gsk3a,inactive: -0.663
10,GCCGACUCUGGAAAUUAUCTT against Nrcam,inactive: -0.345
11,GCGCACAAAAAACAUGAUATT against Plaat5,inactive: 0.211
12,GCCUGCACUGAAGUUCAAUTT against Sod2,inactive: 1.7
13,CACGCGUCGGCGCAGACUCTT against Hmx2,inactive: -1.85
14,GGCGCAUCAUUAUUACCUCTT against Dennd1b,inactive: 0.0167
15,GGGUCAGGAAAAACAGCGATT against Slc15a1,inactive: -1.63
16,CCUCACUAAGUGAGCCUUCTT against Iba57,inactive: -0.309
17,GGUACCAACGUGUAUGGCATT against Gpaa1,inactive: 0.182
18,CCGAUACUUGAACUCUUUUTT against Ctso,inactive: 0.0788
19,CCAGUUUCGGAUUCAGUAGTT against Krt73,inactive: 0.263
20,GGCCUUCUAAAGCUGUGAUTT against 6330403K07Rik,active: -2.7
21,GCAACUAGCCUGUUCUAUCTT against Prkd2,inactive: -0.419
22,GGAAAUCAGCUGUGAAAAATT against Fbxl20,inactive: -0.628
23,GCAAUGGCUACGAAACACATT against Adam2,inactive: 0.983
